# Measured values published in the supplement of paper PMC6411743.
# Sequences of proteins named here, by UniProt entry; tags and fusion partners are left off. A change or cut given only in a name is not applied to a line headed by its entry.
# UniProt Q9P013: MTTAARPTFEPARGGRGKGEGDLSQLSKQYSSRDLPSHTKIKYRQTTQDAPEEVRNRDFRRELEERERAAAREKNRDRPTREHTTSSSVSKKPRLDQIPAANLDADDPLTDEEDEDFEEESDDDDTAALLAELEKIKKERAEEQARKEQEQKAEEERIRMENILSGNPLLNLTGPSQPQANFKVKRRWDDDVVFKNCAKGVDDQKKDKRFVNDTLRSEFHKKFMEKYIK
# UniProt Q9NR09, whole entry: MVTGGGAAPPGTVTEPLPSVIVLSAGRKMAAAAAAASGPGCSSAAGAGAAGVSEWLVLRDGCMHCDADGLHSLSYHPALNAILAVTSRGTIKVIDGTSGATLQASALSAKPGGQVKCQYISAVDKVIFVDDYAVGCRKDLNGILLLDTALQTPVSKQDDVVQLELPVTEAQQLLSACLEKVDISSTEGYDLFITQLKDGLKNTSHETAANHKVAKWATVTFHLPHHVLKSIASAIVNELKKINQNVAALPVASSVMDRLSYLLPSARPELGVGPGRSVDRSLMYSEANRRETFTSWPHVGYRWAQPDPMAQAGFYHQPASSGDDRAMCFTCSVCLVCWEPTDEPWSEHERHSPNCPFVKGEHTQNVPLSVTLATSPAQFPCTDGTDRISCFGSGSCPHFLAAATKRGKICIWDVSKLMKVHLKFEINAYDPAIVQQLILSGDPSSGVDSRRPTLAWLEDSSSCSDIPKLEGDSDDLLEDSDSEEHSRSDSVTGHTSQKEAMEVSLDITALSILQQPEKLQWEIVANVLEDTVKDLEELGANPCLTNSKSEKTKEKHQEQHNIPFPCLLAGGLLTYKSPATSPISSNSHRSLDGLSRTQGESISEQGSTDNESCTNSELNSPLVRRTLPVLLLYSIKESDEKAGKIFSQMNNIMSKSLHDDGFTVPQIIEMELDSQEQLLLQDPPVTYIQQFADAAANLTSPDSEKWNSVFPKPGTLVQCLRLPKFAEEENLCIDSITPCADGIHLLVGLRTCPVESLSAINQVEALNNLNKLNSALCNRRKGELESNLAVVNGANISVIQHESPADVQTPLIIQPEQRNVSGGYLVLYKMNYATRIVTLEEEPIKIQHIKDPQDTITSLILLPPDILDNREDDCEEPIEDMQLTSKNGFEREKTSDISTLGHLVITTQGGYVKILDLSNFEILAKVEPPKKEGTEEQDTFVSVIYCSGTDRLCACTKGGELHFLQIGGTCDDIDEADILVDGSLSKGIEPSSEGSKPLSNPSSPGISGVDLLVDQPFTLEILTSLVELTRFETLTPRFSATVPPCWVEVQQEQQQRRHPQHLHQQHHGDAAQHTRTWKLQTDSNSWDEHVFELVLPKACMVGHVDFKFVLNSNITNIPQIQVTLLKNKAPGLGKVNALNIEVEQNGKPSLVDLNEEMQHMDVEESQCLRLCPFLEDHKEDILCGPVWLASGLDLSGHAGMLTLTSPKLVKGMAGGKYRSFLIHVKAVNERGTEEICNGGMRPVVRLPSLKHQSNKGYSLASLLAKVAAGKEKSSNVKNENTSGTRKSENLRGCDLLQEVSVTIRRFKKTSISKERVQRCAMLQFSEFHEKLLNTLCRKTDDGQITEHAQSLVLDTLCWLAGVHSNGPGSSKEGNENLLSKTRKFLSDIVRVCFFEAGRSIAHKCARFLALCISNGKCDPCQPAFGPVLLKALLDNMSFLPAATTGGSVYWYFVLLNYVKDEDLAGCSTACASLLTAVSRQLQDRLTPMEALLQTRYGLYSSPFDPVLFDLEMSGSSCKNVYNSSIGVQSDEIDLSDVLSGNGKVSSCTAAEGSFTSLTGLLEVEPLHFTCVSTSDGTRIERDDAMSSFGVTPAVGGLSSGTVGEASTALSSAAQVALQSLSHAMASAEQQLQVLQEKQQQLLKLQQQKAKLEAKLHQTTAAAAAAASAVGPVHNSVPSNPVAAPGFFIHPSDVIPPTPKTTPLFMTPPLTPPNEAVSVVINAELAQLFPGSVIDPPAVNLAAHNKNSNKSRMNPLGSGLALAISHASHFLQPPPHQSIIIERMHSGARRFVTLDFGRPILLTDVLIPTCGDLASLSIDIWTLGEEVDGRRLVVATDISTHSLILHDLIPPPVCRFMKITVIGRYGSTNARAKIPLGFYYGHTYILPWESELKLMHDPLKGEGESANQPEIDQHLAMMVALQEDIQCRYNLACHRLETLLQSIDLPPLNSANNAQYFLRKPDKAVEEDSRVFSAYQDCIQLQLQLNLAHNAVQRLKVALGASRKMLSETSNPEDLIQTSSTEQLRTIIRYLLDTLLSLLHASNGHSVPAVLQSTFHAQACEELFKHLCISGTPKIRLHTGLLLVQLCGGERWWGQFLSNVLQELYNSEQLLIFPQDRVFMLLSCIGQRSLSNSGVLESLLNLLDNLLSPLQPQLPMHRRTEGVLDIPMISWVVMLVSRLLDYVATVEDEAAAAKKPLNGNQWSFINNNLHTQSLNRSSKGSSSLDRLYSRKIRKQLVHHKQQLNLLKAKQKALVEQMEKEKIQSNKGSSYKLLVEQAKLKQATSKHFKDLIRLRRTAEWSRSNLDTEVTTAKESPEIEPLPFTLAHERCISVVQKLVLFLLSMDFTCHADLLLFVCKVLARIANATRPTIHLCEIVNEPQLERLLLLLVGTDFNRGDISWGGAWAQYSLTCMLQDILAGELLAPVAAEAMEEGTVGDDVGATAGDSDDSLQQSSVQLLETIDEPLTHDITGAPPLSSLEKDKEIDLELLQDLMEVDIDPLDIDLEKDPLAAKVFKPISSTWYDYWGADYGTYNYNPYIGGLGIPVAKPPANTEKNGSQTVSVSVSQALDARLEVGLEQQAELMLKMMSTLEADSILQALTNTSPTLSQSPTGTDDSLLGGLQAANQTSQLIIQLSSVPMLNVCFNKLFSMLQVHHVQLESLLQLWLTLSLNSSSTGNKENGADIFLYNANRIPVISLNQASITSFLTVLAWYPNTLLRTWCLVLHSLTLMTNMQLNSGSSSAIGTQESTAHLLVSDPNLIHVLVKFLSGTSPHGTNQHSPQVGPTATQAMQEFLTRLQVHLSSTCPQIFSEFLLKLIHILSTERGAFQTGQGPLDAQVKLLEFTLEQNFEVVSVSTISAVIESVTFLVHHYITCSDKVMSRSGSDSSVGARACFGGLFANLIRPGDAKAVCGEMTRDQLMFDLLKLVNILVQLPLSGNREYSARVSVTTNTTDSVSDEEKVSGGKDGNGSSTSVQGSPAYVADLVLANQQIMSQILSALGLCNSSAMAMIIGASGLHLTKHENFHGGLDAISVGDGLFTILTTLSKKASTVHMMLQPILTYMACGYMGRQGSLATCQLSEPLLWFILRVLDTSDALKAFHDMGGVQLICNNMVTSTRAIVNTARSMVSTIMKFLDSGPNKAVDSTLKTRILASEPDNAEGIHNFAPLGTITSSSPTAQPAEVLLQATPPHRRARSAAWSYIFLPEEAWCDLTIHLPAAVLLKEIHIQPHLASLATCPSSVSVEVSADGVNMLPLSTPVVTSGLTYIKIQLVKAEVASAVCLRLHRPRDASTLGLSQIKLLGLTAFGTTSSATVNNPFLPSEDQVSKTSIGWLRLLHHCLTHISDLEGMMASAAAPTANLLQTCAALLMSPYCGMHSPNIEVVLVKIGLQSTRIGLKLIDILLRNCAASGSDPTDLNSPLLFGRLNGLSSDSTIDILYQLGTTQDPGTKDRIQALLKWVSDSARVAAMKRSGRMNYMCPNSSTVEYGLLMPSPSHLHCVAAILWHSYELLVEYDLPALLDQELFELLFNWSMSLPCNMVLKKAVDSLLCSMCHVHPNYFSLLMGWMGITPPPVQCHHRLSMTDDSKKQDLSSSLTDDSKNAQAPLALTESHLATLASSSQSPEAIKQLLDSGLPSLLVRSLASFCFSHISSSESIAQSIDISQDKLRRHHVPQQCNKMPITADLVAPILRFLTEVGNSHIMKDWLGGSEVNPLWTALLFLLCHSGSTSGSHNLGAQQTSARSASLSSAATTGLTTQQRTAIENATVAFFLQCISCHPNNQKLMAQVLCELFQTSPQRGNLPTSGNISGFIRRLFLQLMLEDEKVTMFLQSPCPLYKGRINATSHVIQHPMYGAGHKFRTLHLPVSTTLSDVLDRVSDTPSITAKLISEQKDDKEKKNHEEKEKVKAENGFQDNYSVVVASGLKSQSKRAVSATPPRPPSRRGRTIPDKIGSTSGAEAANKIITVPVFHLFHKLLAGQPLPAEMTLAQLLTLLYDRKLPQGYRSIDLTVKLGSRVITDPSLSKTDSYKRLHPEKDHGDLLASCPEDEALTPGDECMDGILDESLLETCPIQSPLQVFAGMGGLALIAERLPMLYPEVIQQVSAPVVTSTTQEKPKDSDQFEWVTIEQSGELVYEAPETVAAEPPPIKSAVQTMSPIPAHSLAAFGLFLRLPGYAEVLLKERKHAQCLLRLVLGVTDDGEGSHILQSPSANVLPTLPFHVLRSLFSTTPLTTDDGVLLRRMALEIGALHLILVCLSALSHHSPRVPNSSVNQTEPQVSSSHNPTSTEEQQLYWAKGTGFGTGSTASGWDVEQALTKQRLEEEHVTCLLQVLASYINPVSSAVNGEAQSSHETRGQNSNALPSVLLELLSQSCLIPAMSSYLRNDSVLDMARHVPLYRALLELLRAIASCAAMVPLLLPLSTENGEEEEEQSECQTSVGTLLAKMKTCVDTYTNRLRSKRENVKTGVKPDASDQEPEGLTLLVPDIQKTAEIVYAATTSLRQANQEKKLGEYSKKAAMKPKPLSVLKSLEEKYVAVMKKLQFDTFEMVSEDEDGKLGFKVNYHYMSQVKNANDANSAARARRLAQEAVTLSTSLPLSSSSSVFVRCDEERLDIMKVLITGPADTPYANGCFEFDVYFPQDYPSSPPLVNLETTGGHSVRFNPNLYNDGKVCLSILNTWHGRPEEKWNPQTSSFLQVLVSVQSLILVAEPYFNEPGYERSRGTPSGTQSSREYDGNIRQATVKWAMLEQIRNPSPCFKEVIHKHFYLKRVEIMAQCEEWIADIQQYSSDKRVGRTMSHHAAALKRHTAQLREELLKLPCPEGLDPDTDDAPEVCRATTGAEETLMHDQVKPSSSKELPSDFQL
# UniProt Q9NZW5: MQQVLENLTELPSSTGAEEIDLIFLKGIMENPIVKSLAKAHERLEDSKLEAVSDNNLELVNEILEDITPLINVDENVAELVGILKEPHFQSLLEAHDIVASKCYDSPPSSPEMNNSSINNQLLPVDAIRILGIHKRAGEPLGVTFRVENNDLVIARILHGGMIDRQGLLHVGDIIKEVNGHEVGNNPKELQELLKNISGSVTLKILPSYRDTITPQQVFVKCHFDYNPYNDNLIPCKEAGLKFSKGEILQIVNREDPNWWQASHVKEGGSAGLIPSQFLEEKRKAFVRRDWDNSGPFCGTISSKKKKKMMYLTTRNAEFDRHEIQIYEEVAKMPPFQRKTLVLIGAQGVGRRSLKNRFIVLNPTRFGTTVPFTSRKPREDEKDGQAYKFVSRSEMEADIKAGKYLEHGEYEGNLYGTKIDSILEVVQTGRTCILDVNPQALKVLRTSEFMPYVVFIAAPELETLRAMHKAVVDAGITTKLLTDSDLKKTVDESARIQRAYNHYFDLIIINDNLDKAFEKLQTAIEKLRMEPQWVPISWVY
# UniProt Q9NX00: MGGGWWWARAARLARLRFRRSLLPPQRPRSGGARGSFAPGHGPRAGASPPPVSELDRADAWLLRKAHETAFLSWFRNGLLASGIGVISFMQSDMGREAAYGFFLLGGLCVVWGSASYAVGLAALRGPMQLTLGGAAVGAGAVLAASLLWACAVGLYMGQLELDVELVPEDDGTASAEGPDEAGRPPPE
# UniProt Q9NZC3: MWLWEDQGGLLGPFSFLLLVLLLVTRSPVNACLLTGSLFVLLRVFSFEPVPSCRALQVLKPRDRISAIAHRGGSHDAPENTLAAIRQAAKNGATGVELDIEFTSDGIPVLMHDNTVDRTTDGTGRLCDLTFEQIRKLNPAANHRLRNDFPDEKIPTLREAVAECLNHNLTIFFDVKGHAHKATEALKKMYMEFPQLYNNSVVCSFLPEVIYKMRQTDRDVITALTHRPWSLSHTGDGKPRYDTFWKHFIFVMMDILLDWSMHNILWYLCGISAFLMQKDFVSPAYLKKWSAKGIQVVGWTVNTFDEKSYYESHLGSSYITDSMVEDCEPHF
# UniProt Q9NRP0: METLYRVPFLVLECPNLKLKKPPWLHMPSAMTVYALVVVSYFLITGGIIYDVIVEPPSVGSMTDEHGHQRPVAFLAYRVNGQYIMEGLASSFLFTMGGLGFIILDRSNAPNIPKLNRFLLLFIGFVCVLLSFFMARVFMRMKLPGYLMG
# UniProt Q9NX07: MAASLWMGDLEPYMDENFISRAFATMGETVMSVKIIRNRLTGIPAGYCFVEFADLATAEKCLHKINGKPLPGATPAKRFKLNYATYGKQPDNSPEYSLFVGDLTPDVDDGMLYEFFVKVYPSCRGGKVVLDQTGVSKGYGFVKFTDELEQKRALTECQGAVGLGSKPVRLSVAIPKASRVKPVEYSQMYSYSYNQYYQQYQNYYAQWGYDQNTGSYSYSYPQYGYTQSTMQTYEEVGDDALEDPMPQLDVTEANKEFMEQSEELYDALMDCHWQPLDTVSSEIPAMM
# ± gives the standard deviation of the averaged measurements. Only a part is listed here, and it is no random draw. Most values lie at the level of the controls, where differences are scatter.
# Compound: Nc1ncnc2c1ncn2[C@@H]1O[C@H](COP(=O)(O)OP(=O)(O)NP(=O)(O)O)[C@@H](O)[C@H]1O [adenylyl imidodiphosphate]
# Assay: NP40-soluble protein abundance relative to vehicle (solubility fold change) (ratio); higher = more soluble protein in presence of AMP-PNP
# Method in brief: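 Across three independent experiments, values are fold changes against the detergent-processed vehicle for each replicate, based on vsn-normalised intensities. The samples were Jurkat crude lysate treated with eight concentrations (0.1 to 10 mM) for 10 min at room temperature and then 3 min at 37 °C. Lysate was solubilised with 0.8% NP40 and benzonase, ultracentrifuged, and the supernatant analysed by TMT-labelled LC-MS/MS.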
Target,NP40-soluble protein abundance (concentration: 0.1mM),NP40-soluble protein abundance (concentration: 0.5mM)
INTS10 (UniProt Q9NVR2),0.999 ± 0.028,0.988 ± 0.019
UniProt Q9P2N6-3|Q9P2N6,1.01 ± 0.013,0.998 ± 0.045
UniProt Q9NWV4,0.956 ± 0.024,1.02 ± 0.045
RBM28 (UniProt Q9NW13),1 ± 0.023,1.03 ± 0.049
UniProt Q9P0U4 and related entries,1.01 ± 0.033,0.977 ± 0.034
TDP1 (UniProt Q9NUW8),1.015 ± 0.0095,1.01 ± 0.016
UniProt Q9NUP1,1.02 ± 0.015,1.02 ± 0.026
UniProt Q9NQY0 and related entries,1.03 ± 0.014,1.04 ± 0.054
UniProt Q9NVX0 and related entries,1.01 ± 0.039,1.01 ± 0.055
UniProt Q9NSB8 and related entries,0.989 ± 0.046,1.01 ± 0.045
MBD2 (UniProt Q9UBB5),0.996 ± 0.049,1.01 ± 0.035
ZBTB40 (UniProt Q9NUA8),1 ± 0.044,0.963 ± 0.01
UniProt Q9NQH7 and related entries,1.05 ± 0.023,1.02 ± 0.018
CHD7 (UniProt Q9P2D1),0.978 ± 0.014,0.956 ± 0.013
FBXO28 (UniProt Q9NVF7),1.008 ± 0.0051,1.01 ± 0.02
TERF2IP (UniProt Q9NYB0),0.974 ± 0.0055,1 ± 0.037
UniProt Q9NX55,1.012 ± 0.0078,1.01 ± 0.028
WDR70 (UniProt Q9NW82),1.02 ± 0.014,1.03 ± 0.0064
CWC15 (UniProt Q9P013),0.997 ± 0.054,1.07 ± 0.084
EXOSC3 (UniProt Q9NQT5),1.04 ± 0.048,0.997 ± 0.031
FAM120C (UniProt Q9NX05),1.01 ± 0.029,0.978 ± 0.032
SAE1 (UniProt Q9UBE0),0.982 ± 0.024,1.03 ± 0.029
TBC1D13 (UniProt Q9NVG8),0.999 ± 0.031,0.958 ± 0.075
ABHD10 (UniProt Q9NUJ1),0.9984 ± 0.0061,1.03 ± 0.054
NECAP2 (UniProt Q9NVZ3),0.993 ± 0.015,1.01 ± 0.033

Target,NP40-soluble protein abundance (concentration: 0.1mM),NP40-soluble protein abundance (concentration: 0.5mM)
UniProt Q9NZ09 and related entries,0.973 ± 0.012,0.986 ± 0.044
RNF181 (UniProt Q9P0P0),0.991 ± 0.022,0.988 ± 0.043
LANCL2 (UniProt Q9NS86),0.977 ± 0.046,0.9796 ± 0.0095
DIP2B (UniProt Q9P265),0.994 ± 0.022,0.971 ± 0.065
UniProt Q9NZM5,0.985 ± 0.068,1.013 ± 0.0023
THYN1 (UniProt Q9P016),0.978 ± 0.022,1.04 ± 0.053
ARMC1 (UniProt Q9NVT9),0.992 ± 0.026,1.04 ± 0.063
RMND1 (UniProt Q9NWS8),0.991 ± 0.061,0.985 ± 0.031
POLE3 (UniProt Q9NRF9),1.03 ± 0.089,1.04 ± 0.041
BIRC6 (UniProt Q9NR09),0.997 ± 0.016,0.971 ± 0.036
UniProt Q9NYJ8,0.911 ± 0.079,0.91 ± 0.076
UniProt Q9NUQ3,0.995 ± 0.018,1.02 ± 0.052
UniProt Q9NZN8 and related entries,0.915 ± 0.03,0.943 ± 0.078
KIF13B (UniProt Q9NQT8),0.983 ± 0.026,0.961 ± 0.021
UniProt Q9NW68 and related entries,0.972 ± 0.033,1.01 ± 0.032
NANS (UniProt Q9NR45),0.9862 ± 0.0088,0.986 ± 0.045
UniProt Q9NXE8,0.972 ± 0.0037,0.993 ± 0.018
UniProt Q9NRX1 and related entries,0.995 ± 0.021,1.03 ± 0.057
UniProt Q9NZ52-3|Q9NZ52-4|Q9NZ52 and related entries,0.987 ± 0.023,0.977 ± 0.024
UniProt Q9NQW7-3,1.03 ± 0.04,1 ± 0.028
UniProt Q9NS23 and related entries,1.01 ± 0.032,1.01 ± 0.013
RCC2 (UniProt Q9P258),0.9916 ± 0.0042,0.994 ± 0.02
UniProt Q9UBS0,1.06 ± 0.041,1.07 ± 0.073
UniProt Q9P275 and related entries,1.02 ± 0.03,1.04 ± 0.05
DDX21 (UniProt Q9NR30),1.08 ± 0.034,1.16 ± 0.1

# Quoted from the entries so far for reference:
Target,NP40-soluble protein abundance (concentration: 0.1mM),NP40-soluble protein abundance (concentration: 0.5mM)
BIRC6 (UniProt Q9NR09),0.997 ± 0.016,0.971 ± 0.036
UniProt Q9NYJ8,0.911 ± 0.079,0.91 ± 0.076

# As entered above.
# NP40-soluble protein abundance (concentration: 0.1mM), UniProt Q9NUQ3 is entered as 0.995 ± 0.018
# NP40-soluble protein abundance (concentration: 0.5mM), UniProt Q9NXE8 is entered as 0.993 ± 0.018

# Following part:

Target,NP40-soluble protein abundance (concentration: 0.1mM),NP40-soluble protein abundance (concentration: 0.5mM)
UniProt Q9NYM9 and related entries,0.963 ± 0.037,0.998 ± 0.033
UniProt Q9NW81 and related entries,1.05 ± 0.047,1 ± 0.015
FAM118A (UniProt Q9NWS6),0.971 ± 0.029,1 ± 0.016
MPP6 (UniProt Q9NZW5),0.997 ± 0.023,0.994 ± 0.046
KLHL11 (UniProt Q9NVR0),1.02 ± 0.046,0.976 ± 0.056
UniProt Q9NYR9 and related entries,1.03 ± 0.033,1.02 ± 0.016
OCIAD1 (UniProt Q9NX40),0.989 ± 0.021,1.02 ± 0.041
UniProt Q9NWK9 and related entries,1.02 ± 0.024,1 ± 0.024
UniProt Q9NQ66 and related entries,1.03 ± 0.026,1.01 ± 0.011
TMOD2 (UniProt Q9NZR1),0.9938 ± 0.0076,0.987 ± 0.071
UniProt Q9P1Y5 and related entries,1.01 ± 0.028,0.967 ± 0.044
UniProt Q9NRX2 and related entries,1.05 ± 0.014,1 ± 0.034
TMEM160 (UniProt Q9NX00),0.996 ± 0.05,1.01 ± 0.058
UniProt Q9P2R3 and related entries,1.01 ± 0.011,0.988 ± 0.031
UniProt Q9P0J0 and related entries,0.996 ± 0.057,0.93 ± 0.11
UniProt Q9NUV9 and related entries,1.02 ± 0.013,1.05 ± 0.058
UniProt Q9NSI2 and related entries,0.979 ± 0.04,1.02 ± 0.05
GDE1 (UniProt Q9NZC3),0.995 ± 0.036,1.02 ± 0.048
OSTC (UniProt Q9NRP0),1.03 ± 0.0054,1.03 ± 0.03
HDAC6 (UniProt Q9UBN7),1.01 ± 0.015,0.995 ± 0.019
UniProt Q9NZN5-2|Q9NZN5,0.9918 ± 0.0028,0.966 ± 0.038
COMMD8 (UniProt Q9NX08),1.01 ± 0.016,1 ± 0.043
IRAK4 (UniProt Q9NWZ3),0.9869 ± 0.0036,0.9791 ± 0.0094
MRC2 (UniProt Q9UBG0),1.01 ± 0.0033,1.01 ± 0.028
UniProt Q9P2K8 and related entries,1.01 ± 0.029,0.974 ± 0.047

Target,NP40-soluble protein abundance (concentration: 0.1mM),NP40-soluble protein abundance (concentration: 0.5mM)
UniProt Q9NYP9,0.987 ± 0.025,0.961 ± 0.047
UniProt Q9NWR8,1.009 ± 0.0037,0.9883 ± 0.0076
AGPAT5 (UniProt Q9NUQ2),1 ± 0.02,0.978 ± 0.067
UniProt Q9NX07 and related entries,0.9819 ± 0.006,0.988 ± 0.028
UniProt Q9NUT2 and related entries,1.08 ± 0.022,1 ± 0.053
UniProt Q9NUM4 and related entries,1 ± 0.057,0.983 ± 0.051
PFDN4 (UniProt Q9NQP4),0.984 ± 0.085,1.02 ± 0.036
POGK (UniProt Q9P215),0.996 ± 0.038,1.02 ± 0.017
IARS2 (UniProt Q9NSE4),0.99 ± 0.031,0.973 ± 0.077
FAM49B (UniProt Q9NUQ9),0.9738 ± 0.0068,1.02 ± 0.029
MRPL40 (UniProt Q9NQ50),1 ± 0.032,0.982 ± 0.044
UniProt Q9NXH9 and related entries,1.01 ± 0.042,0.982 ± 0.034
UniProt Q9NUY8 and related entries,0.971 ± 0.012,0.9919 ± 0.0081
UniProt Q9NRG9 and related entries,0.963 ± 0.035,0.974 ± 0.034
UniProt Q9NRG0 and related entries,1.02 ± 0.021,1.04 ± 0.065
C9orf78 (UniProt Q9NZ63),0.975 ± 0.032,1.01 ± 0.054
UniProt Q9NVH0 and related entries,1 ± 0.018,0.974 ± 0.042
UniProt Q9P107 and related entries,0.993 ± 0.044,0.997 ± 0.063
UniProt Q9NRZ7 and related entries,0.978 ± 0.027,0.988 ± 0.032
UniProt Q9P260 and related entries,1.018 ± 0.0095,0.993 ± 0.014
PPP4R2 (UniProt Q9NY27),1.04 ± 0.032,1.04 ± 0.04
UniProt Q9NVI7-2,1.02 ± 0.079,1.08 ± 0.12
